In paper PMC10669572, “Norlobaridone Inhibits Quorum Sensing-Dependent Biofilm Formation and Some Virulence Factors in Pseudomonas aeruginosa by Disrupting Its Transcriptional Activator Protein LasR Dimerization” (Biomolecules, 2023):
These are yes or no findings as the source states them, for the method shown.

Molecular target: LasR (Pseudomonas aeruginosa transcriptional activator protein, LuxR-type quorum sensing receptor) (P. aeruginosa) (UniProt P25084)
Test: condition: only with 100 μM NBD (LasR produced and measured with NBD instead of odDHL); AUC; sedimentation velocity, 141,900 x g, 20 °C, 20 mM Hepes pH 7.5, 100 mM NaCl; LasR 0.5 and 1 mg/mL produced with and in the presence of 100 μM NBD; c(S) and c(M) distributions in SEDFIT; both purified

B1: LasR (Pseudomonas aeruginosa transcriptional activator protein, LuxR-type quorum sensing receptor) (natural protein)
chain: MALVDGFLELERSSGKLEWSAILQKMASDLGFSKILFGLLPKDSQDYENAFIVGNYPAAWREHYDRAGYARVDPTVSHCTQSVLPIFWEPSIYQTRKQHEFFEEASAAGLVYGLTMPLHGARGELGALSLSVEAENRAEANRFMESVLPTLWMLKDYALQSGAGLAFEHPVSKPVVLTSREKEVLQWCAIGKTSWEISVICNCSEANVNFHMGNIRRKFGVTSRRVAAIMAVNLGLITL
notes: predicted molecular weight of the single chain 26.62 kD; Produced and kept with a small-molecule ligand: odDHL (dimer) or norlobaridone, NBD (monomer); also called LasR-odDHL; NBD-LasR; source: E. coli BL21 (pET23b, 1 mM IPTG, 18 °C overnight) in the presence of 100 μM OdDHL or 100 μM NBD; purified (heparin column, MonoQ, S200 size exclusion)
With B1 the binding was “no binding”.
